Test results: article PMC12569825
These are yes or no findings as the source states them, for the method shown. Binding seen in cells or lysates may run through a third protein. A result given as binding can be weak or reduced; the word gives no strength.

Protein sequences, listed by entry. Tags and fused reporters are not part of them. Lines headed by an entry give the natural chain unless they say otherwise; changes in a name come on top.
UniProt Q96PU5: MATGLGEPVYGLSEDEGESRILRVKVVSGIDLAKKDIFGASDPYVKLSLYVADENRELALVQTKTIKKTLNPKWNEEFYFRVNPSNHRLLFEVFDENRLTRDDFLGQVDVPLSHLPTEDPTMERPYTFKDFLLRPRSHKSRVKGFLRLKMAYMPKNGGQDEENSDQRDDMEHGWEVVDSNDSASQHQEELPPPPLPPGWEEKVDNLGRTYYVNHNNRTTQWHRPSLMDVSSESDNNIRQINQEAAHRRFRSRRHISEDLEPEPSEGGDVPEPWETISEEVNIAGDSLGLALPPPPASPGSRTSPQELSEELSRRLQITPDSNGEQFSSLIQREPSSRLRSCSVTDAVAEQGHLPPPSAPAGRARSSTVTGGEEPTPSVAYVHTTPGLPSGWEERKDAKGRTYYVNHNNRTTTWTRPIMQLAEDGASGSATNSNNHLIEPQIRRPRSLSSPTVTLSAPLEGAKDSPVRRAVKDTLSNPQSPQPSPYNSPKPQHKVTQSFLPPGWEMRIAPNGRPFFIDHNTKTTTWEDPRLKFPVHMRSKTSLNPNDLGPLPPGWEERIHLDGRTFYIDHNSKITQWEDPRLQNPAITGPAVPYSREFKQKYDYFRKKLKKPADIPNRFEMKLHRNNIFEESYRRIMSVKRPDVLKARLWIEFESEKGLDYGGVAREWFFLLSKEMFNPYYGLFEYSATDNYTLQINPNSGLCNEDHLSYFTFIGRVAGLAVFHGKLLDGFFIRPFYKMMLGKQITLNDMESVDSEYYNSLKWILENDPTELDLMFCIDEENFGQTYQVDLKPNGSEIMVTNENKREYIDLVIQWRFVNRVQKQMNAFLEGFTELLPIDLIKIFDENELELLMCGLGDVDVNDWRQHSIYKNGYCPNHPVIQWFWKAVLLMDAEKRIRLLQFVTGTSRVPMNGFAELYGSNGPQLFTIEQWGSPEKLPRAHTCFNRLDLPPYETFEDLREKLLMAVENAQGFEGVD
UniProt Q6XZF7: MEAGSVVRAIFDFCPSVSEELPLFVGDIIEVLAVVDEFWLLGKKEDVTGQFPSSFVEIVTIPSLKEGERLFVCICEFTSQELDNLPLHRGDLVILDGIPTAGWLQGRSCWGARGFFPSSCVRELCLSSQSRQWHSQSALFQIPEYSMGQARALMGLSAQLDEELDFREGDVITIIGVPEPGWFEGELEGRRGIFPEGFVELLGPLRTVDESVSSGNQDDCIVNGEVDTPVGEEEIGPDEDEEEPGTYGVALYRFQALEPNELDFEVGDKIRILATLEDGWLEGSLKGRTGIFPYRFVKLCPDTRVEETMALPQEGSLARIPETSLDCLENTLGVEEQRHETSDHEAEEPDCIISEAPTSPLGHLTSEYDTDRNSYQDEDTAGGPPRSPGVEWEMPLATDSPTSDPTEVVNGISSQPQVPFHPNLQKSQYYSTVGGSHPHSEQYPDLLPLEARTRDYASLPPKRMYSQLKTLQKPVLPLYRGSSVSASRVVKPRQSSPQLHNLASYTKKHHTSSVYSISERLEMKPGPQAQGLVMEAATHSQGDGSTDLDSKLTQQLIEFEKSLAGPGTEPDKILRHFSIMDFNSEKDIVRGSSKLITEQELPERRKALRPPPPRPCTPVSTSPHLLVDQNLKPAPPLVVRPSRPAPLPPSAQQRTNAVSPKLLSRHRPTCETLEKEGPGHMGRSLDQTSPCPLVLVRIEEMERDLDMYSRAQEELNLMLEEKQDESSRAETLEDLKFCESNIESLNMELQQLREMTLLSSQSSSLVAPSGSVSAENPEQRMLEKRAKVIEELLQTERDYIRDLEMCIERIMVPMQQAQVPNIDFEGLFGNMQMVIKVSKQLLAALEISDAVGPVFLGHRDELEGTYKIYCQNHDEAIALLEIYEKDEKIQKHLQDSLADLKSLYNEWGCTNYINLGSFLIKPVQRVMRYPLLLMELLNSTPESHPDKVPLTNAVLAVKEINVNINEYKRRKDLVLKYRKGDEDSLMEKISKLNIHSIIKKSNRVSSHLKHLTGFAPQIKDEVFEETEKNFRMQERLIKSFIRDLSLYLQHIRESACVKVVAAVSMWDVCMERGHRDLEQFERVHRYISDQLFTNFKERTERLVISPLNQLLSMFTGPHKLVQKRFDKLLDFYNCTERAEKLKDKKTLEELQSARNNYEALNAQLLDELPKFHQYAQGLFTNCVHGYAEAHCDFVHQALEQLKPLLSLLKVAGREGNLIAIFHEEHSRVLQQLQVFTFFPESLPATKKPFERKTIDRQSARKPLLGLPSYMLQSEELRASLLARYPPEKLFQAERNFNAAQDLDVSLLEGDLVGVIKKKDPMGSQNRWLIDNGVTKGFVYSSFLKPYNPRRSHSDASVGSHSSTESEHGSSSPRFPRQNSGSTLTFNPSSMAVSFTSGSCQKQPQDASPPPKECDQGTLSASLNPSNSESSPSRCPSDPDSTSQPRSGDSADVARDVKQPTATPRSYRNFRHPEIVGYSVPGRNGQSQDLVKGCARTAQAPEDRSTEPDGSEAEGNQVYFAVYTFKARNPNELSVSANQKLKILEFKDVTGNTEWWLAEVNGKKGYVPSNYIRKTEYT

Target: V5-tagged Nedd4-2(CS), catalytically inactive mutant (UniProt Q96PU5)
Experiment: co-IP; HEK293T or HeLa cells transfected 2 days, iso- or hyper-osmotic medium (600 mOSM) for 15 min; 1 mg cleared lysate (1% Triton X-100, 150 mM NaCl, Hepes pH 7.5); Nedd4-2 immunoprecipitated with anti-V5 affinity beads, DNMBP detected by immunoblot for HA or DNMBP

HA-tagged Dynamin Binding Protein (DNMBP) (from UniProt Q6XZF7 1-1577)
binding: binds
